Measurements as given in PMC2817451.
Results are given in words; binding and its absence hold for the method and conditions named. Binding seen in cells or lysates may run through a third protein. Some results given as binding are weak or reduced against the parent protein; the word gives no strength.

Chains of the proteins cited; added tags and fusions are not shown. Residues count along the entry.
UniProt P07766, residues 23-207: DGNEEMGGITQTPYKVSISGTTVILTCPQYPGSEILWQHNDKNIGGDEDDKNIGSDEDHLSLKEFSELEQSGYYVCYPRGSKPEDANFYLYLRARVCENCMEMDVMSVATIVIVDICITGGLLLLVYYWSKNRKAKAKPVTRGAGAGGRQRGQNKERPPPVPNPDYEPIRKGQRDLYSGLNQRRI
UniProt P08575, residues 26-1306: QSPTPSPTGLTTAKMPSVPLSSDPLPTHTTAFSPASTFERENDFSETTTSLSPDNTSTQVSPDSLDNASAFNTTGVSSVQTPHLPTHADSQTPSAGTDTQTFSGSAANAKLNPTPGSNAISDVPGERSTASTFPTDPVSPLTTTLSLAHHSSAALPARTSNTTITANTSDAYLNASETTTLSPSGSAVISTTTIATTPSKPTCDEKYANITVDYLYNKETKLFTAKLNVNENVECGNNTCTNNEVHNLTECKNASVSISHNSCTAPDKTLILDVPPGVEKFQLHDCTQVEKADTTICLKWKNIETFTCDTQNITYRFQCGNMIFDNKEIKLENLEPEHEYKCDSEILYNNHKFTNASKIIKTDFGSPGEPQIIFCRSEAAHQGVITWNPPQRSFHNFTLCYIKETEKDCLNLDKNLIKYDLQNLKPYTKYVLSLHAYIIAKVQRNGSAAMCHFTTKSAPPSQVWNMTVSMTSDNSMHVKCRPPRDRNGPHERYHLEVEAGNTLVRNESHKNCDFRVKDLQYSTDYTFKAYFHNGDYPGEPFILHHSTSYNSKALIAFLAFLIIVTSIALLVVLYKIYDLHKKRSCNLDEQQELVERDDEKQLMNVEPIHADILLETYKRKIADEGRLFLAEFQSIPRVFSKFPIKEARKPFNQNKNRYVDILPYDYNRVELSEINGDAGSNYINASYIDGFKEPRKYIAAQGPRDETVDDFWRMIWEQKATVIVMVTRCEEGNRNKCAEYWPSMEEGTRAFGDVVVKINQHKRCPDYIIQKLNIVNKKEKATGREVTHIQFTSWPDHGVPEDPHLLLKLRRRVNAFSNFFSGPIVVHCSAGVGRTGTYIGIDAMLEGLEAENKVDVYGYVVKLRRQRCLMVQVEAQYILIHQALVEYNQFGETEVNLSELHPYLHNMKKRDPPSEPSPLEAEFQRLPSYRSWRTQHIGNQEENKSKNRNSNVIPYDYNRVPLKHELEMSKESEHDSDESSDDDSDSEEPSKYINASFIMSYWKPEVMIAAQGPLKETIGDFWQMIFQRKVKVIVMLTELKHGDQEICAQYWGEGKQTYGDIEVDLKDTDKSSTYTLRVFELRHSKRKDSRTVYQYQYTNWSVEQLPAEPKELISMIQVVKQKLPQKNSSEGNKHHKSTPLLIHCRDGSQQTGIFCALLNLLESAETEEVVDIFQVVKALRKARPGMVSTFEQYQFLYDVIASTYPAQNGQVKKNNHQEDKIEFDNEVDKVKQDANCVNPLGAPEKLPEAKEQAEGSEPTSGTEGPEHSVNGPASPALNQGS
UniProt P49682: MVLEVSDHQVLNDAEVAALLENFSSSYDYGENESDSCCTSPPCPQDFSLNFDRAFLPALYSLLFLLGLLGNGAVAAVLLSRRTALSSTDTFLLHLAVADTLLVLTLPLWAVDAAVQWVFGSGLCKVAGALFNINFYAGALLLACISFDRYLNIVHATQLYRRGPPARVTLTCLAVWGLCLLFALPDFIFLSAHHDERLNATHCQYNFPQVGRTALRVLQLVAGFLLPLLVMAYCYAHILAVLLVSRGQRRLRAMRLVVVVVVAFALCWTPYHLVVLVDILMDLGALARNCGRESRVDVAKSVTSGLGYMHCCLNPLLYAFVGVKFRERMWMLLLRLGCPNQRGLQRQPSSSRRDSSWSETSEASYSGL
UniProt P41597: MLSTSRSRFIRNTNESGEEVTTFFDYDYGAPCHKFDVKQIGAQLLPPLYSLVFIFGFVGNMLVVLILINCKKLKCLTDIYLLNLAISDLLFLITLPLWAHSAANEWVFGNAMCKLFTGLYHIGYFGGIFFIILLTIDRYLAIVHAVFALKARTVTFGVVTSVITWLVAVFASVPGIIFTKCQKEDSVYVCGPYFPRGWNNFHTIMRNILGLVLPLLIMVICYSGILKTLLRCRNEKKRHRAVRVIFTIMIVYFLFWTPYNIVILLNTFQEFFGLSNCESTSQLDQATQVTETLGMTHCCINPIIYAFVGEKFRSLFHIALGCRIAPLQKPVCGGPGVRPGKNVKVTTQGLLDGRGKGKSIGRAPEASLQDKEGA

Legend:
[1] = target: CD3ɛ subunit of the T cell receptor complex (human (endogenous in activated peripheral blood T cells)) (UniProt P07766); assay: FRET or BRET; flow cytometric FRET on activated T cells, incubation with CXCL10 omitted; anti-CXCR3-PE donor, anti-CD3ɛ-APC acceptor
[2] = target: CD3ɛ subunit of the T cell receptor complex (human (endogenous in activated peripheral blood T cells)) (UniProt P07766); assay: FRET or BRET; flow cytometric FRET on activated T cells incubated with 10 nM CXCL10 for 20 min at 37 °C; donor anti-CXCR3-PE excited at 488 nm, acceptor APC conjugate (anti-CD3ɛ, or anti-CD45 as control) read at 675 nm; antibodies titrated to saturation; some samples acid washed (pH 2, 4 °C, 5 min)
[3] = target: CD45 (human (endogenous in activated peripheral blood T cells)) (UniProt P08575); assay: as above
[4] = target: CD3ɛ subunit of the T cell receptor complex (human (endogenous in activated peripheral blood T cells)) (UniProt P07766); assay: FRET or BRET; flow cytometric FRET on activated T cells stimulated with 10 nM CCL7; anti-CCR2-PE donor, anti-CD3ɛ-APC acceptor

Substance	binding [1]	binding [2]	binding [3]	binding [4]
chemokine receptor CXCR3 (from UniProt P49682 1-368)	no binding (condition: without CXCL10 treatment)	binds	no binding	
CCR2 (from UniProt P41597 1-374) (receptor)				no binding
